# Measurements as given in the supplement of paper PMC10727501.
# The list shows a part of the results. This data set is noisy: repeats of one test often differ as much as different tests do.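 Free-swimming zebrafish larvae were assessed for O-bend response probability to dark flashes (naive: first five; training: remaining flashes across four 60-flash blocks; test: later 60-flash block) and for OMR turning toward alternating leftward/rightward LED motion. Six treated larvae were compared against sixty 0.1% DMSO controls; hits required |SSMD|≥2.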
# How the values were obtained:
# Details in all cases: 10 µM; pre-incubation: 30-90 min
# [1] = system: Danio rerio larvae (5 dpf, TLF); test: OMR-Perf (SSMD vs DMSO vehicle); higher = higher than vehicle (e.g. higher dark-flash O-bend response probability, or better optomotor performance)
# [2] = system: Danio rerio larvae (5 dpf, TLF); test: Prob-Test (SSMD vs DMSO vehicle); higher = higher than vehicle (e.g. higher dark-flash O-bend response probability, or better optomotor performance)
# [3] = system: Danio rerio larvae (5 dpf, TLF); test: Prob-Naive (SSMD vs DMSO vehicle); higher = higher than vehicle (e.g. higher dark-flash O-bend response probability, or better optomotor performance)
# [4] = system: Danio rerio larvae (5 dpf, TLF); test: Prob-Train (SSMD vs DMSO vehicle); higher = higher than vehicle (e.g. higher dark-flash O-bend response probability, or better optomotor performance)
Compound,OMR-Perf [1],Prob-Test [2],Prob-Naive [3],Prob-Train [4]
CC(=O)N1CCN(c2ccc(OC[C@H]3CO[C@](Cn4ccnc4)(c4ccc(Cl)cc4Cl)O3)cc2)CC1 [Ketoconazole],-0.316,-0.309,0.0846,-0.24
O=c1c(O)c(-c2ccc(O)c(O)c2)oc2cc(O)cc(O)c12 [Quercetin],-0.856,0.145,-0.476,-0.0164
N[C@@H](CSCCCO)C(=O)O [Fudosteine],0.0876,-0.403,0.13,-0.636
O=C(NC(NC(=S)Nc1ccc(F)c([N+](=O)[O-])c1)C(Cl)(Cl)Cl)C(c1ccccc1)c1ccccc1 (centres undefined),0.107,0.603,0.319,0.488
O=C(Nc1cc2cc[nH]c2cn1)c1ccccc1,0.125,0.16,-0.0588,0.933
COc1ccc([C@@H]2Sc3ccccc3N(CCN(C)C)C(=O)[C@@H]2OC(C)=O)cc1.Cl [Diltiazem HCl],-0.00475,-0.117,-0.196,-0.57
Cl.NCCc1ccc(O)c(O)c1 [Dopamine HCl],-0.63,-0.351,0.028,-0.447
c1cncc(CN2CCC(n3ncc4c(N5CCOCC5)nc(-c5ccc6[nH]ccc6c5)nc43)CC2)c1,-0.124,-0.655,-0.375,-0.879
COc1c(C)c2c(c(O)c1C/C=C(\C)CCC(=O)OCCN1CCOCC1)C(=O)OC2 [Mycophenolate Mofetil],-0.114,-0.0829,-0.343,-0.405
C=Cc1c(C)c2cc3nc(cc4[nH]c(cc5nc(cc1[nH]2)C(C)=C5CCC(=O)O)c(CCC(=O)OC)c4C)[C@@]1(C)C3=CC=C(C(=O)OC)[C@H]1C(=O)OC [Verteporfin (Visudyne)],-0.587,-0.0105,-0.525,-0.373
CC(C)NC[C@@H](C(=O)N1CCN(c2ncnc3c2[C@H](C)C[C@H]3O)CC1)c1ccc(Cl)cc1,0.311,0.26,0.538,-0.114
CCOC(=O)C1=C(COCCN)NC(C)=C(C(=O)OC)C1c1ccccc1Cl.O=S(=O)(O)c1ccccc1 (centres undefined) [Amlodipine besylate (Norvasc)],-0.00296,0.808,-0.525,0.0166
C[C@@H]1COC(Nc2ccc3ncnc(Nc4ccc(OCc5nccs5)c(Cl)c4)c3c2)=N1 [Varlitinib],0.227,-0.421,-0.289,-0.633
CC(=O)N1c2ccc(-c3ccc(C(=O)O)cc3)cc2[C@H](Nc2ccc(Cl)cc2)C[C@@H]1C,0.0683,-0.0551,-0.355,-0.394
CC(C)OC(=O)C(C(=O)OC(C)C)=C1SC=CS1 [Malotilate],-0.046,-1.34,-2.12,-1.65
CC(C)(C)c1cc(NC(=O)Nc2ccc(-c3cn4c(n3)sc3cc(OCCN5CCOCC5)ccc34)cc2)no1 [Quizartinib (AC220)],0.168,0.227,0.173,-0.239
O=C(O)CCc1nc2ccccc2[nH]1 [Procodazole],0.141,-0.334,0.271,-0.183
COc1cc(OC2CCN(C)CC2)ccc1Nc1ncc2c(n1)n(C1CCCC1)c(=O)n2C,-0.195,-0.18,0.106,0.0462
OC[C@@H]1O[C@H](O[C@]2(CCl)O[C@H](CCl)[C@@H](O)[C@H]2O)[C@H](O)[C@@H](O)[C@H]1Cl [Sucralose],-0.495,0.0444,-0.252,-0.537
CN/C(=C/[N+](=O)[O-])NCCSCc1csc(CN(C)C)n1 [Nizatidine],0.161,-0.131,-0.027,-0.0204
CC(=O)c1cc([N+](=O)[O-])c(Sc2ccc(F)cc2F)s1,-0.675,-1.41,-0.714,-0.214
Nc1ccc(S(=O)(=O)Nc2ccccn2)cc1 [Sulfapyridine],-0.289,0.629,-0.118,0.146
O=C(O)/C=C/c1ccc(Cn2ccnc2)cc1 [Ozagrel],0.532,-0.993,0.118,-0.238
Cc1cn([C@H]2C[C@H](N=[N+]=[N-])[C@@H](CO)O2)c(=O)[nH]c1=O [Zidovudine],-0.199,-0.193,0,0.443
CCOc1ccn(-c2ccc(F)cc2)c(=O)c1C(=O)Nc1ccc(Oc2ccnc(N)c2Cl)c(F)c1,-0.0683,-0.0917,0.113,0.248
N[C@@H]1CN(c2c(F)cc3c(=O)c(C(=O)O)cn([C@@H]4C[C@@H]4F)c3c2Cl)CC12CC2 [Sitafloxacin Hydrate],0.124,-0.661,-0.383,0.0672

# Single entries from above:
# For Prob-Naive [3], O=C(NC(NC(=S)Nc1ccc(F)c([N+](=O)[O-])c1)C(Cl)(Cl)Cl)C(c1ccccc1)c1ccccc1 (centres undefined) has 0.319
# For Prob-Naive [3], CC(C)(C)c1cc(NC(=O)Nc2ccc(-c3cn4c(n3)sc3cc(OCCN5CCOCC5)ccc34)cc2)no1 [Quizartinib (AC220)] has 0.173
